In the supplement of paper PMC5355238:
Counter-ions that a name gives are not always drawn. Some of the results follow. Most entries show no effect beyond the scatter of the controls.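 Reh is a human leukemia cell line; the read-out is the median γH2AX antibody signal in S-phase cells by flow cytometry, with the score counting standard deviations from the median difference of each paired set of plates. Scores above 2.5 were called candidate hits, while scores below -2 mark compounds that lowered the MK1775-induced damage.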

Tested on: Reh
Test: Z' of S-phase gammaH2AX difference (drug + MK1775 minus drug alone) (Z-score); higher = stronger synergistic S-phase DNA damage with MK1775
Settings: MK1775 concentration 400 nM; first compound 10 µM; 4 h

| SMILES | Z' of S-phase gammaH2AX difference (Z-score) |
| --- | --- |
| CCc1cncnc1N1CCN(Cc2nc3ccc(C(F)(F)F)cc3[nH]2)CC1 + C=CCn1c(=O)c2cnc(Nc3ccc(N4CCN(C)CC4)cc3)nc2n1-c1cccc(C(C)(C)O)n1 [MK1775] | inactive: 0.205 |
| NC(N)=NCCNS(=O)(=O)c1cccc2cnccc12 [HA-1004 hydrochloride] + C=CCn1c(=O)c2cnc(Nc3ccc(N4CCN(C)CC4)cc3)nc2n1-c1cccc(C(C)(C)O)n1 [MK1775] | inactive: 1.42 |
| CNC(=O)[C@H]1O[C@@H](n2cnc3c(NCc4cccc(I)c4)ncnc32)[C@H](O)[C@@H]1O + C=CCn1c(=O)c2cnc(Nc3ccc(N4CCN(C)CC4)cc3)nc2n1-c1cccc(C(C)(C)O)n1 [MK1775] | inactive: 0.27 |
| C=C[C@H]1CN2CC[C@H]1C[C@@H]2[C@@H](O)c1ccnc2ccc(OC)cc12 [Quinidine sulfate] + C=CCn1c(=O)c2cnc(Nc3ccc(N4CCN(C)CC4)cc3)nc2n1-c1cccc(C(C)(C)O)n1 [MK1775] | inactive: 0.184 |
| Cn1c(=O)c2[nH]cnc2n(C)c1=O [Aminophylline ethylenediamine] + C=CCn1c(=O)c2cnc(Nc3ccc(N4CCN(C)CC4)cc3)nc2n1-c1cccc(C(C)(C)O)n1 [MK1775] | inactive: 0.307 |
| CN(C)CCC=C1c2ccccc2CCc2ccccc21 [Amitriptyline hydrochloride] + C=CCn1c(=O)c2cnc(Nc3ccc(N4CCN(C)CC4)cc3)nc2n1-c1cccc(C(C)(C)O)n1 [MK1775] | inactive: 0.357 |
| Cc1[nH]c(=O)c(C#N)cc1-c1ccncc1 [Milrinone] + C=CCn1c(=O)c2cnc(Nc3ccc(N4CCN(C)CC4)cc3)nc2n1-c1cccc(C(C)(C)O)n1 [MK1775] | inactive: 0.252 |
| CC(C)[C@H](CO)Nc1nc(Nc2cccc(Cl)c2)c2ncn(C(C)C)c2n1 [Purvalanol A] + C=CCn1c(=O)c2cnc(Nc3ccc(N4CCN(C)CC4)cc3)nc2n1-c1cccc(C(C)(C)O)n1 [MK1775] | inactive: -3.02 |
| CN(C)c1cc2c(Nc3ccc4c(cnn4Cc4ccccc4)c3)ncnc2cn1 + C=CCn1c(=O)c2cnc(Nc3ccc(N4CCN(C)CC4)cc3)nc2n1-c1cccc(C(C)(C)O)n1 [MK1775] | inactive: 1.28 |
| COc1cc(Cc2cnc(N)nc2N)cc(OC)c1OC [Trimethoprim] + C=CCn1c(=O)c2cnc(Nc3ccc(N4CCN(C)CC4)cc3)nc2n1-c1cccc(C(C)(C)O)n1 [MK1775] | inactive: -1.21 |
| NC(=O)C(=O)O [Sodium Oxamate] + C=CCn1c(=O)c2cnc(Nc3ccc(N4CCN(C)CC4)cc3)nc2n1-c1cccc(C(C)(C)O)n1 [MK1775] | inactive: 0.665 |
| FC(F)(F)c1cc(COC2CCCNC2c2ccccc2)cc(C(F)(F)F)c1 [L-733,060 hydrochloride] + C=CCn1c(=O)c2cnc(Nc3ccc(N4CCN(C)CC4)cc3)nc2n1-c1cccc(C(C)(C)O)n1 [MK1775] | inactive: 0.17 |
| C[C@@H](Oc1cc(-n2cnc3ccc(CN4CCN(C)CC4)cc32)sc1C(N)=O)c1ccccc1C(F)(F)F + C=CCn1c(=O)c2cnc(Nc3ccc(N4CCN(C)CC4)cc3)nc2n1-c1cccc(C(C)(C)O)n1 [MK1775] | inactive: -0.354 |
| CC1(COc2ccc3c(c2)ncn3-c2ccc3cccc(N4CCC(N)CC4)c3n2)COC1 + C=CCn1c(=O)c2cnc(Nc3ccc(N4CCN(C)CC4)cc3)nc2n1-c1cccc(C(C)(C)O)n1 [MK1775] | inactive: -1.27 |
| NS(=O)(=O)c1cccc2c1c([N+](=O)[O-])cc1nc(O)c(O)nc12 [NBQX disodium] + C=CCn1c(=O)c2cnc(Nc3ccc(N4CCN(C)CC4)cc3)nc2n1-c1cccc(C(C)(C)O)n1 [MK1775] | inactive: -0.233 |
| N#CC(=C(/N)Sc1ccccc1N)/C(C#N)=C(/N)Sc1ccccc1N + C=CCn1c(=O)c2cnc(Nc3ccc(N4CCN(C)CC4)cc3)nc2n1-c1cccc(C(C)(C)O)n1 [MK1775] | inactive: 1.36 |
| NC(N)=NCc1cccc(I)c1 [m-Iodobenzylguanidine hemisulfate] + C=CCn1c(=O)c2cnc(Nc3ccc(N4CCN(C)CC4)cc3)nc2n1-c1cccc(C(C)(C)O)n1 [MK1775] | inactive: 0.294 |
| CC(=O)NCCc1c[nH]c2ccc(O)cc12 [N-Acetyl-5-hydroxytryptamine] + C=CCn1c(=O)c2cnc(Nc3ccc(N4CCN(C)CC4)cc3)nc2n1-c1cccc(C(C)(C)O)n1 [MK1775] | inactive: -0.408 |
| O=c1ccc2ccc(O)c(O)c2o1 [Daphnetin] + C=CCn1c(=O)c2cnc(Nc3ccc(N4CCN(C)CC4)cc3)nc2n1-c1cccc(C(C)(C)O)n1 [MK1775] | inactive: -0.114 |

| SMILES | Z' of S-phase gammaH2AX difference (Z-score) |
| --- | --- |
| CN1CCC(=C2c3ccccc3CC(=O)c3sccc32)CC1 [Ketotifen fumarate] + C=CCn1c(=O)c2cnc(Nc3ccc(N4CCN(C)CC4)cc3)nc2n1-c1cccc(C(C)(C)O)n1 [MK1775] | inactive: -0.697 |
| COc1ccccc1N1CCN(CC(O)COc2cccc3ccccc23)CC1 (configuration not stated) [Naftopidil dihydrochloride] + C=CCn1c(=O)c2cnc(Nc3ccc(N4CCN(C)CC4)cc3)nc2n1-c1cccc(C(C)(C)O)n1 [MK1775] | inactive: 0.17 |
| O=C(O)CC[C@H]1CC[C@@](c2cc(F)ccc2F)(S(=O)(=O)c2ccc(Cl)cc2)CC1 + C=CCn1c(=O)c2cnc(Nc3ccc(N4CCN(C)CC4)cc3)nc2n1-c1cccc(C(C)(C)O)n1 [MK1775] | inactive: 0.153 |
| CCCN(CCC)C(=O)C(CCC(=O)O)NC(=O)c1ccccc1 (configuration not stated) [Proglumide] + C=CCn1c(=O)c2cnc(Nc3ccc(N4CCN(C)CC4)cc3)nc2n1-c1cccc(C(C)(C)O)n1 [MK1775] | inactive: 0.102 |
| CN1CCc2ccccc2Cc2[nH]c3ccccc3c2CC1 + C=CCn1c(=O)c2cnc(Nc3ccc(N4CCN(C)CC4)cc3)nc2n1-c1cccc(C(C)(C)O)n1 [MK1775] | inactive: -0.388 |
| CS(=O)(=O)CCNCc1ccc(-c2ccc3ncnc(Nc4ccc(OCc5cccc(F)c5)c(Cl)c4)c3c2)o1 [Lapatinib Ditosylate (Tykerb)] + C=CCn1c(=O)c2cnc(Nc3ccc(N4CCN(C)CC4)cc3)nc2n1-c1cccc(C(C)(C)O)n1 [MK1775] | inactive: -0.381 |
| COc1cc(Nc2ncc(F)c(Nc3ccc4c(n3)NC(=O)C(C)(C)O4)n2)cc(OC)c1OC [R406(free base)] + C=CCn1c(=O)c2cnc(Nc3ccc(N4CCN(C)CC4)cc3)nc2n1-c1cccc(C(C)(C)O)n1 [MK1775] | inactive: -0.999 |
| CS(=O)(=O)c1cccc(CNc2nc(Nc3ccc4c(c3)CCC(=O)N4)ncc2C(F)(F)F)c1 + C=CCn1c(=O)c2cnc(Nc3ccc(N4CCN(C)CC4)cc3)nc2n1-c1cccc(C(C)(C)O)n1 [MK1775] | inactive: -1.12 |
| S=C(Nc1ccccc1)Nc1nccs1 [1-Phenyl-3-(2-thiazolyl)-2-thiourea] + C=CCn1c(=O)c2cnc(Nc3ccc(N4CCN(C)CC4)cc3)nc2n1-c1cccc(C(C)(C)O)n1 [MK1775] | inactive: -0.868 |
| CSc1ccc(C(=O)c2[nH]c(=O)[nH]c2C)cc1 [Enoximone] + C=CCn1c(=O)c2cnc(Nc3ccc(N4CCN(C)CC4)cc3)nc2n1-c1cccc(C(C)(C)O)n1 [MK1775] | inactive: -0.561 |
| Cc1ccc(NC(=O)c2ccc(CN3CC[C@H](N(C)C)C3)c(C(F)(F)F)c2)cc1Nc1nccc(-c2cncnc2)n1 [Bafetinib (INNO-406)] + C=CCn1c(=O)c2cnc(Nc3ccc(N4CCN(C)CC4)cc3)nc2n1-c1cccc(C(C)(C)O)n1 [MK1775] | inactive: -0.465 |
| COc1ccc(-c2ccc(=N)n(CCCC(=O)O)n2)cc1 + C=CCn1c(=O)c2cnc(Nc3ccc(N4CCN(C)CC4)cc3)nc2n1-c1cccc(C(C)(C)O)n1 [MK1775] | inactive: 0.028 |
| CCCCCCCCCCCCCCCC(=O)NCCO [Palmitoylethanolamide] + C=CCn1c(=O)c2cnc(Nc3ccc(N4CCN(C)CC4)cc3)nc2n1-c1cccc(C(C)(C)O)n1 [MK1775] | inactive: -1.15 |
| CO[C@@H](C(=O)N1Cc2[nH]nc(NC(=O)c3ccc(N4CCN(C)CC4)cc3)c2C1)c1ccccc1 + C=CCn1c(=O)c2cnc(Nc3ccc(N4CCN(C)CC4)cc3)nc2n1-c1cccc(C(C)(C)O)n1 [MK1775] | inactive: -0.901 |
| CN1CCN(C2=Nc3cc(Cl)ccc3Nc3ccccc32)CC1 [Clozapine] + C=CCn1c(=O)c2cnc(Nc3ccc(N4CCN(C)CC4)cc3)nc2n1-c1cccc(C(C)(C)O)n1 [MK1775] | inactive: 0.204 |
| C=CC[C@H](N)C(=O)O [L-allylglycine] + C=CCn1c(=O)c2cnc(Nc3ccc(N4CCN(C)CC4)cc3)nc2n1-c1cccc(C(C)(C)O)n1 [MK1775] | inactive: -0.464 |
| Brc1ccc([C@H]2CN3CCSC3=N2)cc1 [S(-)-p-Bromotetramisole oxalate] + C=CCn1c(=O)c2cnc(Nc3ccc(N4CCN(C)CC4)cc3)nc2n1-c1cccc(C(C)(C)O)n1 [MK1775] | inactive: 0.11 |
| O=C(O)c1ccccc1Nc1ccccc1 [N-Phenylanthranilic acid] + C=CCn1c(=O)c2cnc(Nc3ccc(N4CCN(C)CC4)cc3)nc2n1-c1cccc(C(C)(C)O)n1 [MK1775] | inactive: -0.321 |

Another view of part of the listing above.
SMILES,Z' of S-phase gammaH2AX difference (Z-score)
CCCCCCCCCCCCCCCC(=O)NCCO [Palmitoylethanolamide] + C=CCn1c(=O)c2cnc(Nc3ccc(N4CCN(C)CC4)cc3)nc2n1-c1cccc(C(C)(C)O)n1 [MK1775],inactive: -1.15
CO[C@@H](C(=O)N1Cc2[nH]nc(NC(=O)c3ccc(N4CCN(C)CC4)cc3)c2C1)c1ccccc1 + C=CCn1c(=O)c2cnc(Nc3ccc(N4CCN(C)CC4)cc3)nc2n1-c1cccc(C(C)(C)O)n1 [MK1775],inactive: -0.901
CN1CCN(C2=Nc3cc(Cl)ccc3Nc3ccccc32)CC1 [Clozapine] + C=CCn1c(=O)c2cnc(Nc3ccc(N4CCN(C)CC4)cc3)nc2n1-c1cccc(C(C)(C)O)n1 [MK1775],inactive: 0.204
C=CC[C@H](N)C(=O)O [L-allylglycine] + C=CCn1c(=O)c2cnc(Nc3ccc(N4CCN(C)CC4)cc3)nc2n1-c1cccc(C(C)(C)O)n1 [MK1775],inactive: -0.464
Brc1ccc([C@H]2CN3CCSC3=N2)cc1 [S(-)-p-Bromotetramisole oxalate] + C=CCn1c(=O)c2cnc(Nc3ccc(N4CCN(C)CC4)cc3)nc2n1-c1cccc(C(C)(C)O)n1 [MK1775],inactive: 0.11
O=C(O)c1ccccc1Nc1ccccc1 [N-Phenylanthranilic acid] + C=CCn1c(=O)c2cnc(Nc3ccc(N4CCN(C)CC4)cc3)nc2n1-c1cccc(C(C)(C)O)n1 [MK1775],inactive: -0.321
